According to the supplement of paper PMC10735217:
Structures can show the parent of a compound that is named as a salt. Some of the results follow. Repeats in this data set agree poorly, so a single value says little.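 In a drug-repurposing library screen, luminescence reads luciferase driven by eight TEAD-binding elements, stably integrated into human kidney-derived cells. Compounds scoring over five robust Z scores above the plate mean are called hits.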

Tested on: HEK293A TEAD-LUC reporter
Test: TEAD-luciferase reporter activity (YAP activation), robust Z score vs plate; higher = stronger YAP/TEAD activation
Conditions: 24 h

| SMILES | TEAD-luciferase reporter activity (compound concentration: 200 nM) | TEAD-luciferase reporter activity (compound concentration: 2 uM) | TEAD-luciferase reporter activity (compound concentration: 10 uM) |
| --- | --- | --- | --- |
| Cn1c(=O)c2nc(CN3CCN(C(c4ccccc4)c4ccccc4)CC3)[nH]c2n(C)c1=O | inactive: 0.126 | inactive: 1.02 | inactive: 2.54 |
| O=C(O)c1cccc2c1OB(O)C(NC(=O)C1CC1)C2 (centres undefined) | inactive: -1.43 | – | inactive: 0.398 |
| O=C(O)C1=C(CSc2nnnn2CS(=O)(=O)[O-])CS[C@@H]2[C@H](NC(=O)[C@H](O)c3ccccc3)C(=O)N12 [cefonicid formulations] | inactive: -0.926 | inactive: 0.0441 | inactive: 0.326 |
| CCc1c(-c2ccccc2)[nH]n(C2CCN(C)CC2)c1=O | inactive: -0.277 | inactive: 0.705 | inactive: -0.597 |
| CC(=O)N1CCC(C(=O)N2CCC(c3ccccc3)CC2)CC1 | inactive: 2.1 | – | inactive: 3.65 |
| CNCC[C@@H](Oc1ccccc1C)c1ccccc1 [Atomoxetine (hydrochloride)] | – | inactive: -1.07 | – |
| CNCC[C@@H](Oc1ccccc1C)c1ccccc1 [Atomoxetine hydrochloride] | inactive: -1.1 | – | inactive: 1.26 |
| Nc1sc(N)c2c1CCNC2 | inactive: 1.06 | inactive: -1.24 | inactive: 0.0148 |
| CCn1nc(-c2ccccc2)cc(Nc2cccc3ncccc23)c1=O | inactive: -1.7 | inactive: 3.25 | inactive: -0.221 |
| O=C(NCc1ccc(S(=O)(=O)N2CCC(n3nnc4ccccc43)CC2)s1)c1ccc(Cl)cc1 | inactive: 0.0724 | inactive: -1.98 | inactive: -1.37 |
| O=C(Nc1cccc(C(F)(F)F)c1)Nc1ccccc1C(=O)O | active: 5.74 | inactive: 0.158 | active: 8 |
| CCCc1cc2c(O)c(C(=O)OC)cnc2cc1N(CC)CC | – | inactive: -0.906 | – |
| CCCc1cc2c(O)c(C(=O)OC)cnc2cc1N(CC)CC [Amquinate] | inactive: -0.876 | – | inactive: -1.32 |
| CCN1C[C@@H]([C@H](O)[C@H](CC2CCCCC2)NC(=O)[C@H](Cc2cnc[nH]2)NC(=O)[C@@H](CC(=O)N(C)CCOCOCCOC)Cc2ccccc2)OC1=O | inactive: -1.55 | inactive: 0.255 | inactive: -1.04 |
| O=C(NC[C@H]1CN(c2ccc(N3CCOCC3=O)cc2)C(=O)O1)c1ccc(Cl)s1 [rivaroxaban (extended release)] | inactive: -0.0915 | inactive: 1.98 | inactive: -0.597 |
| COCCOc1cnc2ccn([C@H](C)c3nnc4c(F)cc(-c5cnn(C)c5)cn34)c(=O)c2c1 | inactive: 0.604 | inactive: -1.1 | inactive: 3.47 |
| COc1ccc2nc3[nH]nc(C)c3c(SCc3ccco3)c2c1 | inactive: 0.37 | inactive: -0.205 | inactive: -0.446 |
| Cc1ccc(S(=O)(=O)NC(=O)N[C@H]2[C@@H](O)[C@@]3(C)CC[C@@H]2C3(C)C)cc1 | inactive: -1.34 | inactive: -1.56 | inactive: -0.484 |
| COc1cc(C)c2c(Oc3cccc(C(F)(F)F)c3)c(OC)cc(NC(C)CCCN)c2n1 (centres undefined) [tafenoquine] | – | inactive: -2.31 | – |

An excerpt of these results, with tabs:
SMILES	TEAD-luciferase reporter activity (compound concentration: 200 nM)	TEAD-luciferase reporter activity (compound concentration: 2 uM)	TEAD-luciferase reporter activity (compound concentration: 10 uM)
CCc1c(-c2ccccc2)[nH]n(C2CCN(C)CC2)c1=O	inactive: -0.277	inactive: 0.705	inactive: -0.597
CC(=O)N1CCC(C(=O)N2CCC(c3ccccc3)CC2)CC1	inactive: 2.1	–	inactive: 3.65
CNCC[C@@H](Oc1ccccc1C)c1ccccc1 [Atomoxetine (hydrochloride)]	–	inactive: -1.07	–

Further entries follow.

| SMILES | TEAD-luciferase reporter activity (compound concentration: 200 nM) | TEAD-luciferase reporter activity (compound concentration: 2 uM) | TEAD-luciferase reporter activity (compound concentration: 10 uM) |
| --- | --- | --- | --- |
| COc1cc(C)c2c(Oc3cccc(C(F)(F)F)c3)c(OC)cc(NC(C)CCCN)c2n1 (centres undefined) | inactive: -0.734 | – | inactive: 1.94 |
| Cc1cc(/C=C/c2cccs2)cc(C)c1O [metabolite of BIL 357] | inactive: 0.221 | inactive: 0.403 | inactive: 2.48 |
| N#CC(=C(/N)Sc1ccccc1N)/C(C#N)=C(\N)Sc1ccccc1N | inactive: 0.209 | inactive: 0.339 | inactive: 0.231 |
| Cn1ccc(S(=O)(=O)N2CCCC(Nc3nccc(-c4c(-c5cccc(OCOP(=O)([O-])[O-])c5)nc5occn45)n3)C2)n1 (centres undefined) | inactive: 0.458 | inactive: -1.59 | inactive: -1.4 |
| CN(CCO)c1nc2c(c(=O)n(C)c(=O)n2C)n1C | inactive: -0.931 | inactive: -0.898 | inactive: -1.67 |
| N[C@@H](CCC(=O)O)C(=O)N1CCC[C@H]1B(O)O | inactive: 0.742 | inactive: -0.626 | inactive: -0.141 |
| COCCN1CCC(N(Cc2ccc(-c3ccc(C(F)(F)F)cc3)cc2)C(=O)C2CCC(=O)N2)CC1 (centres undefined) | inactive: -1.74 | inactive: 0.00815 | inactive: -0.567 |
| Clc1ccccc1Cn1ccnc1 | inactive: -0.847 | inactive: -0.756 | inactive: 0.672 |
| C=C1N[C@]2(C(=O)COC(C)=O)[C@@H](C[C@H]3[C@@H]4CCC5=CC(=O)C=C[C@]5(C)[C@H]4[C@@H](O)C[C@@]32C)O1 [deflazacort] | inactive: -0.837 | inactive: -1.27 | inactive: 2.36 |
| CC(C)=CCOc1cc(NC(=O)c2ccncc2)ccc1Cl | inactive: 3.21 | inactive: -0.643 | inactive: 2.37 |
| Cc1cc(CC(=O)O)n(C)c1C(=O)c1ccc(Cl)cc1 [Zomepirac sodium] | inactive: -0.0796 | inactive: -0.63 | inactive: 3.06 |
| Cn1cc(C[C@@H](N)C(=O)O)c2ccccc21 [indoximod] | inactive: 0.428 | inactive: -0.0181 | inactive: 1.12 |
| Fc1ccc(C(c2ccc(F)cc2)N2CCN(C/C=C/c3ccccc3)CC2)cc1 [flunarizine] | inactive: -0.276 | inactive: -0.17 | inactive: -0.155 |
| CC(=O)NCC(=O)O | inactive: -1.58 | inactive: -1.33 | inactive: -1.46 |
| CCCCCCCCCCCC(=O)NCCc1c[nH]c2ccc(OC)cc12 | inactive: -0.0466 | inactive: 1.28 | inactive: 2.38 |
| CC(C)(C)C(=O)CN1C(=O)[C@H](NC(=O)Nc2cccc(C(=O)O)c2)CN(C2CCCCC2)c2ccccc21 | inactive: 4.86 | inactive: -0.637 | inactive: -0.00217 |
| O=C(Cc1ccc(-c2ccccc2)cc1)Nc1ccccn1 [difenpyramide] | inactive: 0.936 | inactive: -0.0438 | inactive: -1.27 |
| N#CCC1(n2cc(-c3ncnc4[nH]ccc34)cn2)CN(C2CCN(C(=O)c3ccnc(C(F)(F)F)c3F)CC2)C1 [Itacitinib] | inactive: -0.329 | inactive: -0.672 | inactive: -0.412 |
| O=C1NC(c2ccccc2)(c2ccccc2)C(=O)N1COP(=O)([O-])[O-] [fosphenytoin sodium] | inactive: -1.46 | inactive: 0.225 | inactive: -0.39 |

| SMILES | TEAD-luciferase reporter activity (compound concentration: 200 nM) | TEAD-luciferase reporter activity (compound concentration: 2 uM) | TEAD-luciferase reporter activity (compound concentration: 10 uM) |
| --- | --- | --- | --- |
| Cc1nc2cnccc2n1-c1ccc(OCc2cccc(/C=C/c3nc4cc(F)ccc4s3)c2)cc1 | inactive: -1.03 | inactive: 0.191 | active: 9.63 |
| CC(C)(C(=O)NCC(F)(F)C(F)(F)F)C(=O)N[C@@H]1C(=O)Nc2ccccc2-c2ccccc21 | inactive: -0.327 | inactive: -0.287 | inactive: 0.242 |
| CC(C)(C)c1ccc(CN(Cc2cccc(OCC(=O)O)c2)S(=O)(=O)c2cccnc2)cc1 | inactive: -1.22 | inactive: -1.52 | inactive: 0.0142 |
| CN1N=C2CCN(C(=O)[C@H](COCc3ccccc3)NC(=O)C(C)(C)N)CC2(Cc2ccccc2)C1=O (some centres undefined) | inactive: -0.758 | inactive: 0.0613 | inactive: 0.106 |
| Cn1nccc1Nc1nccc(-c2ccn([C@H](CO)c3ccc(Cl)c(F)c3)c(=O)c2)n1 | inactive: -0.37 | inactive: -2 | inactive: -2.57 |
| O=C(O)CNC(=O)c1ncc(-c2cccc(Cl)c2)cc1O [Vadadustat] | inactive: 0.296 | inactive: -0.474 | inactive: -0.97 |
| CN(C)c1nc2ccc(-n3cnc4cc(-c5ccc(Cl)cc5)sc4c3=O)cc2n1C | inactive: -0.403 | inactive: -1.57 | inactive: 1.08 |
| CC(=O)N1C[C@H](O)C[C@H]1C(=O)N[C@@H](CCCNC(=N)N)C(=O)c1nc2ccccc2s1 | inactive: 0.766 | inactive: -0.581 | inactive: -1.16 |
| CC(=O)Nc1ccc(CN(C)Cc2ccc(-c3ccccc3)cc2)cc1 | inactive: 0.446 | – | inactive: -0.7 |
| COc1cc(S(C)(=O)=O)ccc1Nc1nc2cc(-c3ccc(NC(=O)C(C)c4ccc(F)cc4)cc3)ccn2n1 (centres undefined) | inactive: -1.08 | inactive: 1.35 | active: 9.18 |
| O=C(O)CCCN1CCC[C@@H]1COc1ccc(Oc2ccc(Cl)cc2)cc1 | inactive: 1.86 | inactive: 0.178 | inactive: 1.23 |
| CC12CCC(C(=O)N(CCCCN3CCN(c4ccccn4)CC3)C1=O)C2(C)C (centres undefined) [Piricapiron] | inactive: -0.613 | inactive: -1.56 | inactive: 2.15 |
| COc1ccc(OC2CN(Cc3ccccc3)C2)cc1 | inactive: -0.476 | – | inactive: 1.59 |
| N=C(N)c1ccc(O)c(CN2CCC(NS(=O)(=O)c3ccc(-c4cccnc4)s3)C2=O)c1 (centres undefined) | inactive: -0.945 | inactive: -0.134 | inactive: 1.19 |
| CCCCCCNC(=O)NC(=N)NCCCN1CCN(CCCNC(=N)NC(=O)NCCCCCC)CC1 [Ipexidine] | inactive: -0.587 | – | inactive: 0.635 |
| CCCCCCNC(=O)NC(=N)NCCCN1CCN(CCCNC(=N)NC(=O)NCCCCCC)CC1 | – | inactive: -0.882 | – |
| Cc1cc2ncc(C(=O)NC3CCCCC3C)cn2n1 (centres undefined) | inactive: -0.638 | – | inactive: -1.01 |
| [Li+] [Lithium citrate] | inactive: -0.656 | inactive: 0.0248 | inactive: -0.094 |
| COc1cc2c(CCNC(C)=O)c[nH]c2cc1Cl | inactive: -0.201 | inactive: 1.61 | inactive: 1.62 |
